In the supplement of paper PMC10849652:
Some of the results follow.

Chains of the proteins cited; added tags and fusions are not shown. Lines headed by an entry give the natural chain unless they say otherwise; changes in a name come on top.
UniProt Q9UJV8: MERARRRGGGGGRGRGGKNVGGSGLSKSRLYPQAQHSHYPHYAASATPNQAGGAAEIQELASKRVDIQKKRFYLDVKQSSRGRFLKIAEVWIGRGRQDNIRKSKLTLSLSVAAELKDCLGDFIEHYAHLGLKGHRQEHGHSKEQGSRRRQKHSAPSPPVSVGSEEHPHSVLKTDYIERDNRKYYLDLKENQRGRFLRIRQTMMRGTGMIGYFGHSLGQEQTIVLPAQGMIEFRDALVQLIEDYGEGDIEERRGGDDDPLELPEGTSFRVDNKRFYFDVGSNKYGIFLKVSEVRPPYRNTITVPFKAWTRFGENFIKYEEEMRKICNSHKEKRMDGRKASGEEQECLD
UniProt P43115: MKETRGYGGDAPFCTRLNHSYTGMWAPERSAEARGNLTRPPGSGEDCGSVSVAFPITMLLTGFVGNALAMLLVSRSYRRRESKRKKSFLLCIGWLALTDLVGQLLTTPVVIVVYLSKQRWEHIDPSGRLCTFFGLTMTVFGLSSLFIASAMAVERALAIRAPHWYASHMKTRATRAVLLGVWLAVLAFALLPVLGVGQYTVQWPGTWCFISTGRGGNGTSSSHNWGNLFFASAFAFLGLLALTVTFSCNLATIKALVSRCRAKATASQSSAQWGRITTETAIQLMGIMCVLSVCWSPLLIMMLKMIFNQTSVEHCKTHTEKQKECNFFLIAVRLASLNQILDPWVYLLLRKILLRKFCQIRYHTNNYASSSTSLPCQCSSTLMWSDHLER
UniProt Q92932: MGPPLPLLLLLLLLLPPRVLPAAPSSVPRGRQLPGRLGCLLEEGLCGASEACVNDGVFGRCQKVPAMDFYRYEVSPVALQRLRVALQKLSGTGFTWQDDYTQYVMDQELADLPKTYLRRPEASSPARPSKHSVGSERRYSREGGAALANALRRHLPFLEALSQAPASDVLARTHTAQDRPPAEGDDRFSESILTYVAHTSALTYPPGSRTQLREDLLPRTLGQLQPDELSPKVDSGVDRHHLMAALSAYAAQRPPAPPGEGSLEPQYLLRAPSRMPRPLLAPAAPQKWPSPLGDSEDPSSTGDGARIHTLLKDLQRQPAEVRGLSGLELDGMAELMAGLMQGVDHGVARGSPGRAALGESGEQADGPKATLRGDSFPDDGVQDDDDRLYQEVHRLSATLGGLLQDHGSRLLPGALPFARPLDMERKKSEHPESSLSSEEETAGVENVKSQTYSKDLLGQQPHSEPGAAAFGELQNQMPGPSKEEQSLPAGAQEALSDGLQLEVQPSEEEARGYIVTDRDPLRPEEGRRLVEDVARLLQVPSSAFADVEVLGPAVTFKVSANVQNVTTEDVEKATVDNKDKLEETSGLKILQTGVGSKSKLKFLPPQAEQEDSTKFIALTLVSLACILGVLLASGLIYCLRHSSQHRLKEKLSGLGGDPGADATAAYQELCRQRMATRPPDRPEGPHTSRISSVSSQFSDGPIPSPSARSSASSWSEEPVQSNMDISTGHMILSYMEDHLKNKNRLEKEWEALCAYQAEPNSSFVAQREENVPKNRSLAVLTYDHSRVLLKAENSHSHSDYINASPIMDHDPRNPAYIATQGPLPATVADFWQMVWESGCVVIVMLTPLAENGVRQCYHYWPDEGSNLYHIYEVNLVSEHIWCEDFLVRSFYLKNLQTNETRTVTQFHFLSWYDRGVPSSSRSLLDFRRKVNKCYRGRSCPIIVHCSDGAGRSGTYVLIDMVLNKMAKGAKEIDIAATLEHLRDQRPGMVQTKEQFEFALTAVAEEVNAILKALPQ
UniProt Q14671: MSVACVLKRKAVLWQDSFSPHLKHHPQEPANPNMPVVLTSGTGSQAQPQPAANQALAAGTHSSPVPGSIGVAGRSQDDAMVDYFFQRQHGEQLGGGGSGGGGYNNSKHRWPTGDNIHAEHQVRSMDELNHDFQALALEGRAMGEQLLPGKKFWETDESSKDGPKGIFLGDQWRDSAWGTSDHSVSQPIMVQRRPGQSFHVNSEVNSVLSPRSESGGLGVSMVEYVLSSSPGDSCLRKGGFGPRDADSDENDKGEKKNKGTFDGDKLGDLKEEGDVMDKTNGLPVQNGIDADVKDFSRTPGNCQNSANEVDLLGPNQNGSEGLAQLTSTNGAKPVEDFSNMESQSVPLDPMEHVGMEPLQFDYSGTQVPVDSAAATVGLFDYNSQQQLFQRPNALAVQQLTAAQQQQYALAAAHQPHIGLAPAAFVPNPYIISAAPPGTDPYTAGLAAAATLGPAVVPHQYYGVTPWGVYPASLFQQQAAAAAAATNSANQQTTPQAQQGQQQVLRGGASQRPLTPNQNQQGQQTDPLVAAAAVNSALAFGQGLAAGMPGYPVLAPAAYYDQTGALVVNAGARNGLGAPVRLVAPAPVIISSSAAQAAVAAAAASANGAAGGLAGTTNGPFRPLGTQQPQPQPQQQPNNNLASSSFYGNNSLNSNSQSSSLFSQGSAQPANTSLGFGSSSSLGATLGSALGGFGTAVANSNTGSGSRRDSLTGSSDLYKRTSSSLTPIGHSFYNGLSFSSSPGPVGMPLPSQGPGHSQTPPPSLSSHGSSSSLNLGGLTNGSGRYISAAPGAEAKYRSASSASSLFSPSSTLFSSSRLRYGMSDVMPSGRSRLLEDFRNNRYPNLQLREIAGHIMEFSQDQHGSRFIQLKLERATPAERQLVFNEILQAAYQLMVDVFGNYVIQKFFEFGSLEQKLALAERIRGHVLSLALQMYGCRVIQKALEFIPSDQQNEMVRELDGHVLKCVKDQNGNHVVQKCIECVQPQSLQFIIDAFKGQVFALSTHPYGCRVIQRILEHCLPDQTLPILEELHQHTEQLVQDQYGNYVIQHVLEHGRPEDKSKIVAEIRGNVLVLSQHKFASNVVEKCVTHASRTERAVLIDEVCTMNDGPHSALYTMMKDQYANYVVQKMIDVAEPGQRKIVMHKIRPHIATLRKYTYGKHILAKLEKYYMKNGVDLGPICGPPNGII
UniProt P53801: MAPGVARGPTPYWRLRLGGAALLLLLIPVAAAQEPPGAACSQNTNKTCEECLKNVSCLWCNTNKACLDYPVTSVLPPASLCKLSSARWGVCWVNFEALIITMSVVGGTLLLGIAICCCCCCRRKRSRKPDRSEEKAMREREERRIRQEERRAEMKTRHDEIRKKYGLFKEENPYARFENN
UniProt O75365, whole entry, looked up: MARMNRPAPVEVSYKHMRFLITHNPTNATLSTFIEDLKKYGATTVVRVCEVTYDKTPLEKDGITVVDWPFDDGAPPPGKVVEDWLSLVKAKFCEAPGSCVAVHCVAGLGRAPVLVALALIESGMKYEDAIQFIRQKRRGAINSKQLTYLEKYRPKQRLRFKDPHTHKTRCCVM
UniProt P28065: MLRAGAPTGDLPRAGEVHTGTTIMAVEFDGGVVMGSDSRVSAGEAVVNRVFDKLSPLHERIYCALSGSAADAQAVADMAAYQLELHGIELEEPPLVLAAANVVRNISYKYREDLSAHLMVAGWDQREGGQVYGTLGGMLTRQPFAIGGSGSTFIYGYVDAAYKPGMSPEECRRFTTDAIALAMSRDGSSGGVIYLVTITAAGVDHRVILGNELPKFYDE
UniProt Q7Z5L2: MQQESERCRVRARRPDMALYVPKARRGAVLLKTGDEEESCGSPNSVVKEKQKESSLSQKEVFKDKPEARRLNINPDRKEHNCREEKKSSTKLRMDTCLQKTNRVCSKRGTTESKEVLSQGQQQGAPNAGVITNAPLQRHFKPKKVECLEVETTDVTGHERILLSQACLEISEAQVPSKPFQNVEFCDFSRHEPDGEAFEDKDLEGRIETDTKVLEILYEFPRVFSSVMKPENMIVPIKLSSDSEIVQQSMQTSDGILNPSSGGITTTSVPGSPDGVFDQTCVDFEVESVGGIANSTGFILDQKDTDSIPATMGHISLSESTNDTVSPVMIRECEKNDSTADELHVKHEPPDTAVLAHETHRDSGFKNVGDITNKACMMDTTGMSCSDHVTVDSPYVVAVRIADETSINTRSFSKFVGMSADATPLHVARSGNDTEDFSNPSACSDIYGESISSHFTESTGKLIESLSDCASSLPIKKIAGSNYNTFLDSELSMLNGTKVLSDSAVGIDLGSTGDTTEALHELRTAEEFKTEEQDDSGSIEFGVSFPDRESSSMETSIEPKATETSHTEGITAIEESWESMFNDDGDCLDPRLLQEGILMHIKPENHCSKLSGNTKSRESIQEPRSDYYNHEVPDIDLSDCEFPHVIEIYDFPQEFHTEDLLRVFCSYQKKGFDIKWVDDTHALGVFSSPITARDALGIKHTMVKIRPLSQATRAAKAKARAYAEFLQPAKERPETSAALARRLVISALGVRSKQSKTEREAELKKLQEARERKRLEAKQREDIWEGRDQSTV
UniProt Q9UHX1: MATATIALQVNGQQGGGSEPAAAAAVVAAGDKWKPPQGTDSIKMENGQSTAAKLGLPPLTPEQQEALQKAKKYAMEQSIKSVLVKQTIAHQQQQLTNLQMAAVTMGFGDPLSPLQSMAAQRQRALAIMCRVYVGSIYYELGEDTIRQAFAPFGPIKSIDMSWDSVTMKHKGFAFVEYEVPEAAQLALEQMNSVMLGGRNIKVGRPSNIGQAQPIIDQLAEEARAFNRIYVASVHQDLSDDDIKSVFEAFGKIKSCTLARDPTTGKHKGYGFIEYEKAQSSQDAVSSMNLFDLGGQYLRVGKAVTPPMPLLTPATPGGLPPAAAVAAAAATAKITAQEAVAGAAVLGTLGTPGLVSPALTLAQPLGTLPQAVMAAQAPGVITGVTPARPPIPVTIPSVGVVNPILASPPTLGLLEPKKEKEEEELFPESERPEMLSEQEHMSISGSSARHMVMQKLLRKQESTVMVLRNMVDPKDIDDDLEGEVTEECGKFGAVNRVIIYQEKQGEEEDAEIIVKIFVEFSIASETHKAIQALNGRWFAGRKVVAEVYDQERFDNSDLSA
UniProt Q96I23: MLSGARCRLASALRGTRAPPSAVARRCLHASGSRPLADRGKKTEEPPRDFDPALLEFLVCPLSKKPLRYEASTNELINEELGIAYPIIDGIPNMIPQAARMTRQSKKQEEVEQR
UniProt Q9P2W1: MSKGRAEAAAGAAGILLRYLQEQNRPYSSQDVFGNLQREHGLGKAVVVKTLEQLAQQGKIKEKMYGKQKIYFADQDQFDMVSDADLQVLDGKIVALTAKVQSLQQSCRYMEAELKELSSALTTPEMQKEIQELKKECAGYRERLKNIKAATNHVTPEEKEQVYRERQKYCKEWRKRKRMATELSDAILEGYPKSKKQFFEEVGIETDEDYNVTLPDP
UniProt P40306: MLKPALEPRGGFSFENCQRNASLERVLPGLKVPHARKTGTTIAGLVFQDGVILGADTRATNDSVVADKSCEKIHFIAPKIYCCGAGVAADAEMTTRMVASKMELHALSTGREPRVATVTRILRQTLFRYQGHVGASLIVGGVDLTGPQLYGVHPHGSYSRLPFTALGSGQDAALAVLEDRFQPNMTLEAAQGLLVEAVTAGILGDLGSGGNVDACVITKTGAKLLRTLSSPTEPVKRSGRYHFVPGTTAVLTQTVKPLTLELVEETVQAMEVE
UniProt Q9ULZ3, whole entry, looked up: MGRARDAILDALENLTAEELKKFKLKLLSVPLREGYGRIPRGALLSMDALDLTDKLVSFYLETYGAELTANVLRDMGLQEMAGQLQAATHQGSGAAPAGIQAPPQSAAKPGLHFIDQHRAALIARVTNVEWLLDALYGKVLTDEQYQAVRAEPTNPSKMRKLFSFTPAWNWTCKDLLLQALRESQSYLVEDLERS

How the values were obtained:
Experiment in all cases: log2 fold change, soluble protein after heating vs DMSO (PISA); higher = thermal stabilisation; K562 cells, 10 uM, 30 min; active = over 0.2 and 3.5 SD of the protein, either way, in both replicates (recomputed)
[1] = compound: CC1=C(C=C(C=C1)NC(=O)C2=CC(=CC=C2)C(C)(C)C#N)NC3=CC4=C(C=C3)N=CN(C4=O)C
Summary of the method: (§1)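 Aliquots of K562 cells (2×10^6 cells/mL) treated with 10 μM compound for 30 min were heated for 3 min over 48°C-58°C. After pooling and extraction in PBS with 0.5% NP-40 at 4°C, soluble protein from a 21,000xg, 90 min spin was quantified by TMTpro 16plex LC-MS/MS with channel sums equalised. Thermal stability is expressed against control samples, from duplicates, as a log2 fold change.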

[2] = compound: CCCCN(Cc1ccc(C(=O)NO)cc1)C(=O)Nc1ccccc1 [Nexturastat A]
Summary of the method: as §1

[3] = compound: CC[C@H](C)N1C=C(C2=C(C=C(C=C21)C3=CN=C(C=C3)N4CCNCC4)C(=O)NCC5=C(C=C(NC5=O)C)C)C
Summary of the method: as §1

[4] = compound: CC[C@H](C)[C@@H](C(=O)N[C@@H]([C@@H](C)O)C(=O)N[C@@H](CC(C)C)C(=O)[C@]1(CO1)C)NC(=O)[C@H]([C@@H](C)CC)N(C)C(=O)C [epoxomicin]
Summary of the method: as §1

[5] = compound: CC1=C(C=C(C=C1)NC(=O)C2=CC(=CC=C2)N(C)C)NC(=O)C3=CC=C(C=C3)O
Summary of the method: as §1

[6] = compound: CC1=NC(=CC=C1)C2=C(N=C(N2)C(C)(C)C)C3=CC4=NC=CN=C4C=C3
Summary of the method: as §1

[7] = compound: CCN(CC)Cc1ccc2cc(COC(=O)Nc3ccc(C(=O)NO)cc3)ccc2c1 [givinostat]
Summary of the method: as §1

[8] = compound: CCn1c(C(=O)N(C2CC2)C2CC2)cc2c3c(ncn3C)c(Nc3cc(C)n(C)n3)nc21
Summary of the method: as §1

[9] = compound: CCCc1cc(C)[nH]c(=O)c1CNC(=O)c1cc(-c2ccnc(N3CCN(C)CC3)c2)cc2c1cnn2C(C)C
Summary of the method: as §1

[10] = compound: CCN(CCCOc1ccc2c(Nc3cc(CC(=O)Nc4cccc(F)c4)[nH]n3)ncnc2c1)CCOP(=O)(O)O [barasertib]
Summary of the method: as §1

[11] = compound: CC[C@@H]1C(=O)N(C)c2cnc(Nc3ccc(C(=O)NC4CCN(C)CC4)cc3OC)nc2N1C1CCCC1
Summary of the method: as §1

[12] = compound: CN(CCOC1=CC=C(C=C1)C[C@H]2C(=O)NC(=O)S2)C3=CC=CC=N3 (racemic) [rosiglitazone]
Summary of the method: as §1

[13] = compound: CN1C2=C(C3=C1C(=O)N(N=C3)CC4=CC(=CC=C4)N)SC(=C2)S(=O)C
Summary of the method: as §1

[14] = compound: CCn1cc(-c2ccnc3[nH]c(-c4cccc(CN(C)C)c4)cc23)c(-c2ccc(NC(=O)N(C)C)cc2)n1
Summary of the method: as §1

[15] = compound: CN1CCC(CNc2ccc3ncc(-c4cccc(OC(F)(F)F)c4)n3n2)CC1
Summary of the method: as §1

[16] = compound: CC1=CC=C(C=C1)SC2=C3C=C(SC3=CN=C2)C(=O)N
Summary of the method: as §1

[17] = compound: CCCS(=O)(=O)Nc1ccc(F)c(C(=O)c2c[nH]c3ncc(-c4ccc(Cl)cc4)cc23)c1F [vemurafenib]
Summary of the method: as §1

[18] = compound: CCCS(=O)(=O)Nc1ccc(F)c(C(=O)c2c[nH]c3ncc(Cl)cc23)c1F
Summary of the method: as §1

[19] = compound: CC[C@@H]1C(=O)N(C)c2cnc(Nc3ccc(C(=O)N[C@H]4CC[C@H](N5CCN(CC6CC6)CC5)CC4)cc3OC)nc2N1C(C)C [volasertib]
Summary of the method: as §1

[20] = compound: CN(C)CC(=O)Nc1ccc2[nH]c(=O)c3ccccc3c2c1
Summary of the method: as §1

In the case of PURG (UniProt Q9UJV8), the log2 fold change [1] is reported as inactive: 0.015, the log2 fold change [2] is reported as inactive: 0.494 and the log2 fold change [3] is reported as inactive: -0.049. The log2 fold change [4] was inactive: -0.16.

In the case of PTGER3 isoform 2 (UniProt P43115), the log2 fold change [5] is reported as inactive: -0.087, the log2 fold change [6] is reported as inactive: -0.072 and the log2 fold change [7] is reported as inactive: -0.099. The log2 fold change [8] was inactive: -0.615.

For PTPRN2 isoform 3 (UniProt Q92932), the log2 fold change [1] was inactive: -0.578, the log2 fold change [6] was inactive: -0.265 and the log2 fold change [2] was inactive: -0.092. For the same target, the log2 fold change [9] was inactive: -0.24, the log2 fold change [10] was inactive: 0.093 and the log2 fold change [11] was inactive: 0.083. The log2 fold change [3] was inactive: 0.061, the log2 fold change [4] was inactive: -0.159 and the log2 fold change [12] was inactive: 0.074. For the same target, the log2 fold change [13] was inactive: -0.311.

In the case of PUM1 (UniProt Q14671), the log2 fold change [6] is reported as inactive: -0.028, the log2 fold change [7] is reported as inactive: 0.08 and the log2 fold change [14] is reported as inactive: -0.084. The log2 fold change [13] was inactive: 0.078 and the log2 fold change [15] was inactive: -0.026.

PTTG1IP (UniProt P53801) was tested, and the log2 fold change [1] was inactive: 0.122, the log2 fold change [16] was inactive: -0.107 and the log2 fold change [6] was inactive: -0.062. The log2 fold change [2] was inactive: -0.024, the log2 fold change [17] was inactive: -0.059 and the log2 fold change [18] was inactive: 0.02. The log2 fold change [9] was inactive: 0.008, the log2 fold change [7] was inactive: -0.124 and the log2 fold change [10] was inactive: -0.025. For the same target, the log2 fold change [11] was inactive: -0.223, the log2 fold change [19] was inactive: -0.05 and the log2 fold change [3] was inactive: -0.154. For the same target, the log2 fold change [4] was inactive: -0.017, the log2 fold change [14] was inactive: -0.01 and the log2 fold change [20] was inactive: -0.041. The log2 fold change [13] was inactive: 0.009 and the log2 fold change [15] was active: -0.771.

PTP4A3 (UniProt O75365) was tested, and the log2 fold change [17] was inactive: 0.207, the log2 fold change [10] was inactive: -0.01 and the log2 fold change [20] was inactive: 0.205.

In the case of PSMB9 (UniProt P28065), the log2 fold change [1] is reported as inactive: -0.137, the log2 fold change [16] is reported as inactive: -0.032 and the log2 fold change [6] is reported as inactive: -0.342. For the same target, the log2 fold change [2] was inactive: -0.233, the log2 fold change [17] was inactive: -0.08 and the log2 fold change [18] was inactive: -0.047. The log2 fold change [7] was inactive: -0.179, the log2 fold change [10] was inactive: 0.12 and the log2 fold change [11] was inactive: 0.114. For the same target, the log2 fold change [19] was inactive: 0.008, the log2 fold change [4] was inactive: 0.049 and the log2 fold change [14] was inactive: 0.033. The log2 fold change [20] was inactive: -0.043 and the log2 fold change [15] was inactive: 0.051.

For PSMA3 (UniProt H0YJ03), the log2 fold change [5] was inactive: 0.019, the log2 fold change [16] was inactive: 0.019 and the log2 fold change [6] was inactive: -0.194. For the same target, the log2 fold change [17] was inactive: -0.145, the log2 fold change [18] was inactive: -0.134 and the log2 fold change [11] was inactive: 0.115. For the same target, the log2 fold change [19] was inactive: 0.076, the log2 fold change [20] was inactive: -0.04 and the log2 fold change [13] was inactive: 0.027.

For R3HCC1L (UniProt Q7Z5L2), the log2 fold change [1] was inactive: -0.023, the log2 fold change [16] was inactive: 0.025 and the log2 fold change [17] was inactive: 0.102. For the same target, the log2 fold change [18] was inactive: -0.116, the log2 fold change [7] was inactive: 0.258 and the log2 fold change [19] was inactive: -0.452. For the same target, the log2 fold change [3] was inactive: 0.192, the log2 fold change [8] was inactive: -0.18 and the log2 fold change [14] was inactive: 0.127. For the same target, the log2 fold change [20] was inactive: -0.033 and the log2 fold change [15] was inactive: -0.175.

For PUF60 isoform 2 (UniProt Q9UHX1), the log2 fold change [5] was inactive: 0.04, the log2 fold change [16] was inactive: 0.199 and the log2 fold change [17] was inactive: 0.135. For the same target, the log2 fold change [18] was inactive: 0.35, the log2 fold change [9] was inactive: 0.123 and the log2 fold change [10] was inactive: 0.095. For the same target, the log2 fold change [19] was inactive: -0.372, the log2 fold change [20] was inactive: 0.067 and the log2 fold change [13] was inactive: -0.259.

For PYURF (UniProt Q96I23), the log2 fold change [1] was inactive: 0.175, the log2 fold change [16] was inactive: -0.196 and the log2 fold change [6] was inactive: 0.029. The log2 fold change [2] was inactive: 0.027, the log2 fold change [17] was inactive: -0.09 and the log2 fold change [18] was inactive: 0.057. For the same target, the log2 fold change [9] was inactive: 0.046, the log2 fold change [7] was inactive: -0.034 and the log2 fold change [10] was inactive: 0.008. For the same target, the log2 fold change [11] was inactive: 0.055, the log2 fold change [19] was inactive: 0.166 and the log2 fold change [3] was inactive: -0.046. For the same target, the log2 fold change [4] was inactive: 0.071, the log2 fold change [8] was inactive: 0.054 and the log2 fold change [14] was inactive: 0. For the same target, the log2 fold change [20] was inactive: -0.031, the log2 fold change [12] was inactive: 0 and the log2 fold change [13] was inactive: -0.011. For the same target, the log2 fold change [15] was inactive: 0.184.

In the case of PSMC3IP (UniProt Q9P2W1), the log2 fold change [16] is reported as inactive: 0.02, the log2 fold change [2] is reported as inactive: -0.087 and the log2 fold change [17] is reported as inactive: 0.153. The log2 fold change [18] was inactive: -0.017, the log2 fold change [9] was inactive: 0.188 and the log2 fold change [7] was inactive: 0.037. For the same target, the log2 fold change [10] was inactive: 0.016, the log2 fold change [11] was inactive: -0.4 and the log2 fold change [19] was inactive: -0.345. The log2 fold change [3] was inactive: 0.141, the log2 fold change [4] was inactive: 0.005 and the log2 fold change [8] was inactive: -0.01. The log2 fold change [14] was inactive: 0.043, the log2 fold change [20] was inactive: 0.094 and the log2 fold change [12] was inactive: 0.083. The log2 fold change [15] was inactive: -0.025.

PSMB10 (UniProt P40306) was tested, and the log2 fold change [1] was inactive: 0.033, the log2 fold change [16] was inactive: 0.03 and the log2 fold change [17] was inactive: -0.056. For the same target, the log2 fold change [18] was inactive: -0.026, the log2 fold change [9] was inactive: 0.077 and the log2 fold change [11] was inactive: 0.048. The log2 fold change [19] was inactive: 0.013, the log2 fold change [3] was inactive: -0.023 and the log2 fold change [20] was inactive: -0.052.

For PSMC3 (UniProt E9PLG2), the log2 fold change [1] was inactive: -0.381, the log2 fold change [6] was inactive: -0.217 and the log2 fold change [2] was inactive: 0.04. The log2 fold change [17] was inactive: -0.157, the log2 fold change [9] was inactive: -0.08 and the log2 fold change [10] was inactive: 0.02. The log2 fold change [4] was inactive: -0.273, the log2 fold change [20] was inactive: -0.238 and the log2 fold change [13] was inactive: 0.046.

With PYCARD isoform 2 (UniProt Q9ULZ3) the log2 fold change [5] was inactive: 0.007, the log2 fold change [6] was inactive: -0.129 and the log2 fold change [7] was inactive: 0.097. The log2 fold change [8] was inactive: 0.064.
